The source of these data is publication PMC5520895.

Sequences of proteins named here, by UniProt entry; tags and fusion partners are left off.
UniProt Q3TKT4: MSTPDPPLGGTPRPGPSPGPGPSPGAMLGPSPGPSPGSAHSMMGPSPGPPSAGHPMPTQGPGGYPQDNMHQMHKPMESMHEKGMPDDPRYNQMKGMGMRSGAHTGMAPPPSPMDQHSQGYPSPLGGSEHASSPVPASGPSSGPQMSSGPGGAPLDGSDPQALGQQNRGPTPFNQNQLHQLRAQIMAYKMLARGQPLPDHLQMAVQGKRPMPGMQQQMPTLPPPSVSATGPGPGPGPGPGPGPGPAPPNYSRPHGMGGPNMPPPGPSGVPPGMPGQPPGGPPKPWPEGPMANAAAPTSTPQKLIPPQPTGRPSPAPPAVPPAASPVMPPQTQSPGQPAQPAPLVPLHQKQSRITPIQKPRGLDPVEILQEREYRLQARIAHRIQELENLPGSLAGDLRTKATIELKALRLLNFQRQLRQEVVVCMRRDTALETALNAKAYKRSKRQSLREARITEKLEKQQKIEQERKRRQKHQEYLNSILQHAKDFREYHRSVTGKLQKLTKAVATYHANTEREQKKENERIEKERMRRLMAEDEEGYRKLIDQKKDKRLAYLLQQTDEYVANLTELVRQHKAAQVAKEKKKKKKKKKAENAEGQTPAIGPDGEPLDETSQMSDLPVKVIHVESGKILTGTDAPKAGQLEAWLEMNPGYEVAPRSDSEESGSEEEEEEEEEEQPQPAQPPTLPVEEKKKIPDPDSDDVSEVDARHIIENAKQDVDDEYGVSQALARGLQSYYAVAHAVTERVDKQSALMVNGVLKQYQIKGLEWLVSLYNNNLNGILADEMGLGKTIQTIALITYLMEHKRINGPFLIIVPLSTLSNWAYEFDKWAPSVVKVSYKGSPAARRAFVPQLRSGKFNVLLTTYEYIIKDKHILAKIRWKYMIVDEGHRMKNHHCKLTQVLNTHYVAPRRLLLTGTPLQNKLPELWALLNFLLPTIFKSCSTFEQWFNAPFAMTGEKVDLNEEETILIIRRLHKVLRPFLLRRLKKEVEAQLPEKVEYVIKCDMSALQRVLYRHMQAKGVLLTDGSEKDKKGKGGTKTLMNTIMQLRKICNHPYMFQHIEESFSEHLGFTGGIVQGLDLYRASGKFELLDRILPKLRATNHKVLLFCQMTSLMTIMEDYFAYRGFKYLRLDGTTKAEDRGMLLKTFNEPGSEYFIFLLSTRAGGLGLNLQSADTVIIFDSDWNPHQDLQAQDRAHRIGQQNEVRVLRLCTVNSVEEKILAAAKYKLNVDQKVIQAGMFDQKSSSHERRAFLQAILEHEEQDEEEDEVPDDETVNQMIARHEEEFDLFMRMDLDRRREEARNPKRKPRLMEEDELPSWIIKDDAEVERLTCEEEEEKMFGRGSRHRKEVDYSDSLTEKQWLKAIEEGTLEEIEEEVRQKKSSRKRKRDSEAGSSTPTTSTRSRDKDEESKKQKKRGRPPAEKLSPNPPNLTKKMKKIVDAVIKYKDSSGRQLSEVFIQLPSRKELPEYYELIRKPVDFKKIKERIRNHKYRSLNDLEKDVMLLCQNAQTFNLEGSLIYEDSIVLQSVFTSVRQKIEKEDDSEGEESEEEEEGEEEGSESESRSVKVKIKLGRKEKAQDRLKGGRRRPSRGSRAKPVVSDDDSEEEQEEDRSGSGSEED

No constants are given. Whether binding was seen depends on the method and setting. Binding seen in cells or lysates may run through a third protein. Some results given as binding are weak or reduced against the parent protein; the word gives no strength.

The target in the assay is Brahma-related gene 1 (Brg1) (mouse (endogenous in AML12)) (UniProt Q3TKT4). In words: co-IP; 500 ug AML12 hepatocyte extract immunoprecipitated with 2 ug Brg1 antibody (IgG as negative control) and protein A/G PLUS-Agarose, PBS washes, blotted for Brg1 and Nrf2; cells untreated or pretreated with Nrf2 siRNA or Brg1-Adv, with or without hypoxia 12 h / reoxygenation 4 h.

B1: nuclear factor E2-related factor 2 (Nrf2) (protein, UniProt Q60795 1-597)
chain: MMDLELPPPGLQSQQDMDLIDILWRQDIDLGVSREVFDFSQRQKDYELEKQKKLEKERQEQLQKEQEKAFFAQFQLDEETGEFLPIQPAQHIQTDTSGSASYSQVAHIPKQDALYFEDCMQLLAETFPFVDDHESLALDIPSHAESSVFTAPHQAQSLNSSLEAAMTDLSSIEQDMEQVWQELFSIPELQCLNTENKQLADTTAVPSPEATLTEMDSNYHFYSSISSLEKEVGNCGPHFLHGFEDSFSSILSTDDASQLTSLDSNPTLNTDFGDEFYSAFIAEPSDGGSMPSSAAISQSLSELLDGTIEGCDLSLCKAFNPKHAEGTMEFNDSDSGISLNTSPSRASPEHSVESSIYGDPPPGFSDSEMEELDSAPGSVKQNGPKAQPAHSPGDTVQPLSPAQGHSAPMRESQCENTTKKEVPVSPGHQKAPFTKDKHSSRLEAHLTRDELRAKALHIPFPVEKIINLPVDDFNEMMSKEQFNEAQLALIRDIRRRGKNKVAAQNCRKRKLENIVELEQDLGHLKDEREKLLREKGENDRNLHLLKRRLSTLYLEVFSMLRDEDGKPYSPSEYSLQQTRDGNVFLVPKSKKPDTKKN
With B1, the binding result is on record as “binds”.
